T1: human GITR-Fc (human) (UniProt Q9Y5U5)
T1 sequence (looked up): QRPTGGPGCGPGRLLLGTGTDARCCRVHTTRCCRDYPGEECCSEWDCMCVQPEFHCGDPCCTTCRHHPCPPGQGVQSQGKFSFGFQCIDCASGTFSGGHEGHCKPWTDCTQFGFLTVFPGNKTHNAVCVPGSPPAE

B1: J_C6 scFv (scFv, V domains shown)
VH: EVQLVESGGGLVQPGGSLRLSCAASGFSLSTSGYGVGWVRQAPGKGLEWVAHIWWDDDKYYVDSVKGRFTISRDNAKNSLYLQMNSLRAEDTAVYYCARTRQYFPFAYWGQGTLVTVSS
VL: EIVLTQSPATLSLSPGERATLSCRASQSVGSNVAWYQQKPGQAPRLLIYSASYRYTGIPARFSGSGSGTDFTLTISSLEPEDFAVYYCQQYSTDPLTFGGGTKVEIK
B2: D_B7 scFv (scFv, V domains shown)
VH: B1 VH with V36M, V50L
VL: B1 VL with S28N, S31T, Y55A, T56S, T93N
B3: K_E12 scFv (scFv, V domains shown)
VH: B1 VH with S28T, Y34M, V36M, G37S, T100S, Q102R
VL: B1 VL with S28N, Y55A, T56S

Changes are numbered by the printed parent chain. Results are given in words; binding and its absence hold for the method and conditions named. Some entries that bind do so weakly or less than the wild type. Where a sequence is shown, tags or fusion partners need not be part of it.

For the experiment, the target named is T1, human GITR-Fc (human). Description: post-selection screening ELISA, scFv. Background: In an ELISA, binding on a coated surface is turned into a signal by an enzyme label.
As to B1, the binding result was “binds”.
For B2, the binding entry is on record as “binds”.
B3: the binding entry was “binds”.

(Values after patent US20190375846A1.)
